# Test results taken from the supplement of paper PMC12823440, “Inhibitors supercharge kinase turnover through native proteolytic circuits” (Nature, 2025).
# Amino acid sequences for entries named in this document (tags omitted). A change or cut given only in a name is not applied to a line headed by its entry.
# UniProt P31749: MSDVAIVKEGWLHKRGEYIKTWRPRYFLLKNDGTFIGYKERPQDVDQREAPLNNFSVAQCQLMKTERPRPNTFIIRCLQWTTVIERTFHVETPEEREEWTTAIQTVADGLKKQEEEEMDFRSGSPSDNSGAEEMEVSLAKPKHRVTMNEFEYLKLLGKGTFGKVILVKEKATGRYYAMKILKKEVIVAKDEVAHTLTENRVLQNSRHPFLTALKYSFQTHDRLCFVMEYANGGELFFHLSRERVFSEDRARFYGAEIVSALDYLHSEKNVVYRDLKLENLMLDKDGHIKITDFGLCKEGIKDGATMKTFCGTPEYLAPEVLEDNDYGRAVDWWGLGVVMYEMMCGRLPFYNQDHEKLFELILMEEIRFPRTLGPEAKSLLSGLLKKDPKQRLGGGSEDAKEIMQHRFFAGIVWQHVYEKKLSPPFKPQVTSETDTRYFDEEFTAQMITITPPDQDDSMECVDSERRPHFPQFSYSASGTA
# UniProt Q9UM73: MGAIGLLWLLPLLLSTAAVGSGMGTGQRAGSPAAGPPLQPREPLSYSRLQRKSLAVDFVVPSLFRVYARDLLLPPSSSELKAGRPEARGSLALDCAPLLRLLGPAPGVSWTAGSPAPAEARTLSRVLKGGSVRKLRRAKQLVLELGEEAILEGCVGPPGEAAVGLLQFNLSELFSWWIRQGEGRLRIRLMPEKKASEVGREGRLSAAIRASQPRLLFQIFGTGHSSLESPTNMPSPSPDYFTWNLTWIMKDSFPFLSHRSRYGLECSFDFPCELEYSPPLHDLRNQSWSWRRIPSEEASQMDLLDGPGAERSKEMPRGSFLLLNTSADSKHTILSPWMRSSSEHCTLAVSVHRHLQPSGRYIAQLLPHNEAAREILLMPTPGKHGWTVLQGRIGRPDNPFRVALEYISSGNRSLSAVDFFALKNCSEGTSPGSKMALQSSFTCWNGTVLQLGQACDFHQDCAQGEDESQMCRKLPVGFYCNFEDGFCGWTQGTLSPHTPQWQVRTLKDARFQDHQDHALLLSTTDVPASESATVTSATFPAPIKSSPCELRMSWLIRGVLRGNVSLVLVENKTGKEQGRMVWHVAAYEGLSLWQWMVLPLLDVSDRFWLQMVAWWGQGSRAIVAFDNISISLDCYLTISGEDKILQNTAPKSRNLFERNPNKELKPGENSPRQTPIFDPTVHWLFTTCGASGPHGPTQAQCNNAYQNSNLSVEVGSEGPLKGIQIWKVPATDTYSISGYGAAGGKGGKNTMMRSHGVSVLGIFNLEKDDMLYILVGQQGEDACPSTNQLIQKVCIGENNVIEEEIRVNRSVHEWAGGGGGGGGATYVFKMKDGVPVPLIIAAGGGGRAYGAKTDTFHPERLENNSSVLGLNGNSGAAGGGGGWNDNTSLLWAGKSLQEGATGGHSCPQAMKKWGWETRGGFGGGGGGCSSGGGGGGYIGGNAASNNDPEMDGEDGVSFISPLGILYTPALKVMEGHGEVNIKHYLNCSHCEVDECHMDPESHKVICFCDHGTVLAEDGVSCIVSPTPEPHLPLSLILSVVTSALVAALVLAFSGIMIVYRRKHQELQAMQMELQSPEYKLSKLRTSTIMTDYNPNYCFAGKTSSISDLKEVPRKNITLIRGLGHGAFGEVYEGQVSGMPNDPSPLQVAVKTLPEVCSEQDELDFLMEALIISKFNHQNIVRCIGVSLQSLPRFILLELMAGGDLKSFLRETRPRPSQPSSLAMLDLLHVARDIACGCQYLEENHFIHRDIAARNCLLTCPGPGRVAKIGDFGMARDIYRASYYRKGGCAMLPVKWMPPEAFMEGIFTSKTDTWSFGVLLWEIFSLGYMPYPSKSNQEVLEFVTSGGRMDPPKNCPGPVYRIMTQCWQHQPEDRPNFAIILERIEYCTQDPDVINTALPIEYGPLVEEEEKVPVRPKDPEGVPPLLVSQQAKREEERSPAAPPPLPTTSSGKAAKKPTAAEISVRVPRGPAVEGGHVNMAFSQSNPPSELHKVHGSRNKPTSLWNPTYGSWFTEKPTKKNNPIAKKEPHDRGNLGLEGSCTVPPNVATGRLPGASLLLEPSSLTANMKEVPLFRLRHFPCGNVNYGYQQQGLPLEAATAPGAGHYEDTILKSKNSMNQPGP
# Where a name gives a salt, the structure may show the parent alone. The list shows a part of the results. Hit calls seldom repeat between salt and free forms of one compound.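 Kinases were expressed as nanoluciferase fusions in K562 cells and luminescence was read every 4 h between 2 and 18 h as percent of control, DMSO set to 100% and a positive control to 0%. A time point counts as decreased when the signal drops significantly (2 sigma). The hit call is the authors' own, does not follow from the count of time points alone, and its rule is not shown.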
# Molecular target: AKT1 (UniProt P31749)
# Experiment: kinase-Nluc reporter destabilization hit call (1 = scored as downregulated) (binary); higher = compound decreases kinase abundance
# Details: K562; 2-18 h
row,SMILES,kinase-Nluc reporter destabilization hit call
1,CCCCNc1nc(N)c2[nH]c(=O)n(Cc3ccc(C)nc3)c2n1 (10 µM),inactive: 0
2,N#CC(C#N)=Cc1ccc([N+](=O)[O-])c(O)c1 (10 µM),inactive: 0
3,O=c1[nH]c2ccccc2n1C1CCN(Cc2ccc(-c3[nH]c4cc5ncnc5cc4nc3-c3ccccc3)cc2)CC1 [AKT inhibitor VIII] (2.5 µM),inactive: 0
4,CC(=O)Oc1ccc(/C=C/c2cc(OC(C)=O)cc(OC(C)=O)c2)cc1 [Triacetylresveratrol] (10 µM),inactive: 0
5,O=C1c2ccccc2C(=O)c2c1cccc2-c1cnn(C2CCNCC2)c1 [PDK4-IN-1 (hydrochloride)] (10 µM),inactive: 0
6,CC1C(=O)OC2C(O)C34C5OC(=O)C3(OC3OC(=O)C(O)C34C(C(C)(C)C)C5O)C12O (stereo unspecified) [Ginkgolide C] (10 µM),inactive: 0
7,O=Cc1cn(Cc2ccc(Cl)cc2)c2ccccc12 [Oncrasin-1] (10 µM),inactive: 0
8,N#CC(C#N)=NNc1cccc(Cl)c1 (2.5 µM),inactive: 0
9,CC(C)=CC[C@@H](OC(=O)CC(C)(C)O)C1=CC(=O)c2c(O)ccc(O)c2C1=O [β-Hydroxyisovalerylshikonin] (2.5 µM),inactive: 0
10,O=c1ccc2cc(O[C@@H]3O[C@H](CO)[C@@H](O)[C@H](O)[C@H]3O)c(O)cc2o1 [Esculin] (10 µM),inactive: 0
11,C[C@H]1CC[C@]2(NC1)O[C@H]1C[C@H]3[C@@H]4CC[C@H]5C[C@@H](O)CC[C@]5(C)[C@H]4CC[C@]3(C)[C@H]1[C@@H]2C [Tomatidine] (2 µM),inactive: 0
12,C/C(O)=C(\C#N)C(=O)Nc1cc(Br)ccc1Br (10 µM),inactive: 0
13,COc1ccc2c(c[n+](C)c3c4cc5c(cc4ccc23)OCO5)c1OC [Chelerythrine (chloride)] (10 µM),inactive: 0
14,COc1ccc2c(c1)[nH]c1c(C)nccc12 [Harmine] (10 µM),inactive: 0
15,CCCCCCCCCCCCCCCCOC[C@H](COP(=O)([O-])OCC[N+](C)(C)C)OC(C)=O (10 µM),inactive: 0
16,O=C(O)c1sc2cc(Cl)ccc2c1Cl (10 µM),inactive: 0
17,C[S+]([O-])/C=C/CCN=C=S (stereo unspecified) [Sulforaphene] (10 µM),inactive: 0
18,Cn1cc(C2=C(c3cn(C4CCN(Cc5ccccn5)CC4)c4ccccc34)C(=O)NC2=O)c2ccccc21 [Enzastaurin] (10 µM),inactive: 0
19,CCN1CCN(C(=O)Cc2ccc(Nc3ncc(F)c(Nc4ccc(C(=O)Nc5ccccc5Cl)cc4)n3)cc2)CC1 (2.5 µM),inactive: 0
20,Cc1n[nH]cc1-c1cc2nc([C@@H]3CC4CCN3CC4)[nH]c(=O)c2s1 [Simurosertib] (2.5 µM),inactive: 0
21,O=C(N[C@@H](COc1ccc2[nH]c(=O)[nH]c2c1)c1ccccc1)c1cccn(Cc2ccc(F)c(F)c2)c1=O (2.5 µM),inactive: 0
22,CCOC(=O)c1c(/C(C#N)=C\N)c2ccc(Cl)c(Cl)c2n1C (10 µM),inactive: 0
23,C[C@H](CCC(=O)O)C[C@H](C)C[C@H](C)C(=O)/C=C(\O)[C@H](C)C[C@H](C)C/C=C/[C@@H](C)[C@@H](O)[C@@H](C)[C@@H](O)C[C@@H]1CC[C@@](C)([C@H]2CC[C@@](C)([C@@H](C)O)O2)O1 [Ionomycin (calcium)] (2.5 µM),inactive: 0
24,CC(C)(C)c1cc(C=C(C#N)C#N)cc(Br)c1O (2.5 µM),inactive: 0
25,C=CC(=O)N[C@H]1C=C(C)c2c(-c3cnc4ccccc4c3)c3c(N)ncnc3n2C1 (10 µM),inactive: 0
26,COC[C@H]1OC(=O)c2coc3c2[C@@]1(C)C1=C(C3=O)[C@@H]2CCC(=O)[C@@]2(C)C[C@H]1OC(C)=O [Wortmannin] (2.5 µM),inactive: 0
27,CC(=O)c1c(O)c(C)c(O)c(Cc2c(O)c3c(c(C(=O)/C=C/c4ccccc4)c2O)OC(C)(C)C=C3)c1O [Rottlerin] (2 µM),inactive: 0
28,NCCc1cn(S(=O)(=O)c2c(Cl)nc3sccn23)c2ccccc12 (10 µM),inactive: 0

# Molecular target: ALK (UniProt Q9UM73)
# Experiment: as above
# Details: K562; 2-18 h
row,SMILES,kinase-Nluc reporter destabilization hit call
1,CCCCNc1nc(N)c2[nH]c(=O)n(Cc3ccc(C)nc3)c2n1 (10 µM),inactive: 0
2,N#CC(C#N)=Cc1ccc([N+](=O)[O-])c(O)c1 (10 µM),inactive: 0
3,O=c1[nH]c2ccccc2n1C1CCN(Cc2ccc(-c3[nH]c4cc5ncnc5cc4nc3-c3ccccc3)cc2)CC1 [AKT inhibitor VIII] (2.5 µM),inactive: 0
4,CC(=O)Oc1ccc(/C=C/c2cc(OC(C)=O)cc(OC(C)=O)c2)cc1 [Triacetylresveratrol] (10 µM),inactive: 0
5,O=C1c2ccccc2C(=O)c2c1cccc2-c1cnn(C2CCNCC2)c1 [PDK4-IN-1 (hydrochloride)] (10 µM),inactive: 0
6,CC1C(=O)OC2C(O)C34C5OC(=O)C3(OC3OC(=O)C(O)C34C(C(C)(C)C)C5O)C12O (stereo unspecified) [Ginkgolide C] (10 µM),inactive: 0
7,O=Cc1cn(Cc2ccc(Cl)cc2)c2ccccc12 [Oncrasin-1] (10 µM),inactive: 0
8,N#CC(C#N)=NNc1cccc(Cl)c1 (2.5 µM),inactive: 0
9,CC(C)=CC[C@@H](OC(=O)CC(C)(C)O)C1=CC(=O)c2c(O)ccc(O)c2C1=O [β-Hydroxyisovalerylshikonin] (2.5 µM),inactive: 0
10,O=c1ccc2cc(O[C@@H]3O[C@H](CO)[C@@H](O)[C@H](O)[C@H]3O)c(O)cc2o1 [Esculin] (10 µM),inactive: 0
11,C[C@H]1CC[C@]2(NC1)O[C@H]1C[C@H]3[C@@H]4CC[C@H]5C[C@@H](O)CC[C@]5(C)[C@H]4CC[C@]3(C)[C@H]1[C@@H]2C [Tomatidine] (2 µM),inactive: 0
12,C/C(O)=C(\C#N)C(=O)Nc1cc(Br)ccc1Br (10 µM),inactive: 0
13,COc1ccc2c(c[n+](C)c3c4cc5c(cc4ccc23)OCO5)c1OC [Chelerythrine (chloride)] (10 µM),inactive: 0
14,COc1ccc2c(c1)[nH]c1c(C)nccc12 [Harmine] (10 µM),inactive: 0
15,CCCCCCCCCCCCCCCCOC[C@H](COP(=O)([O-])OCC[N+](C)(C)C)OC(C)=O (10 µM),inactive: 0
16,O=C(O)c1sc2cc(Cl)ccc2c1Cl (10 µM),inactive: 0
17,C[S+]([O-])/C=C/CCN=C=S (stereo unspecified) [Sulforaphene] (10 µM),inactive: 0
18,Cn1cc(C2=C(c3cn(C4CCN(Cc5ccccn5)CC4)c4ccccc34)C(=O)NC2=O)c2ccccc21 [Enzastaurin] (10 µM),inactive: 0
19,CCN1CCN(C(=O)Cc2ccc(Nc3ncc(F)c(Nc4ccc(C(=O)Nc5ccccc5Cl)cc4)n3)cc2)CC1 (2.5 µM),inactive: 0
20,Cc1n[nH]cc1-c1cc2nc([C@@H]3CC4CCN3CC4)[nH]c(=O)c2s1 [Simurosertib] (2.5 µM),inactive: 0
21,O=C(N[C@@H](COc1ccc2[nH]c(=O)[nH]c2c1)c1ccccc1)c1cccn(Cc2ccc(F)c(F)c2)c1=O (2.5 µM),inactive: 0
22,CCOC(=O)c1c(/C(C#N)=C\N)c2ccc(Cl)c(Cl)c2n1C (10 µM),inactive: 0
23,C[C@H](CCC(=O)O)C[C@H](C)C[C@H](C)C(=O)/C=C(\O)[C@H](C)C[C@H](C)C/C=C/[C@@H](C)[C@@H](O)[C@@H](C)[C@@H](O)C[C@@H]1CC[C@@](C)([C@H]2CC[C@@](C)([C@@H](C)O)O2)O1 [Ionomycin (calcium)] (2.5 µM),inactive: 0
24,CC(C)(C)c1cc(C=C(C#N)C#N)cc(Br)c1O (2.5 µM),inactive: 0
25,C=CC(=O)N[C@H]1C=C(C)c2c(-c3cnc4ccccc4c3)c3c(N)ncnc3n2C1 (10 µM),inactive: 0
26,COC[C@H]1OC(=O)c2coc3c2[C@@]1(C)C1=C(C3=O)[C@@H]2CCC(=O)[C@@]2(C)C[C@H]1OC(C)=O [Wortmannin] (2.5 µM),inactive: 0
27,CC(=O)c1c(O)c(C)c(O)c(Cc2c(O)c3c(c(C(=O)/C=C/c4ccccc4)c2O)OC(C)(C)C=C3)c1O [Rottlerin] (2 µM),inactive: 0
28,NCCc1cn(S(=O)(=O)c2c(Cl)nc3sccn23)c2ccccc12 (10 µM),inactive: 0
